# Source: publication PMC3380004
# The chains behind the UniProt entries cited, without tags or fusion partners.
# UniProt Q9EPN1: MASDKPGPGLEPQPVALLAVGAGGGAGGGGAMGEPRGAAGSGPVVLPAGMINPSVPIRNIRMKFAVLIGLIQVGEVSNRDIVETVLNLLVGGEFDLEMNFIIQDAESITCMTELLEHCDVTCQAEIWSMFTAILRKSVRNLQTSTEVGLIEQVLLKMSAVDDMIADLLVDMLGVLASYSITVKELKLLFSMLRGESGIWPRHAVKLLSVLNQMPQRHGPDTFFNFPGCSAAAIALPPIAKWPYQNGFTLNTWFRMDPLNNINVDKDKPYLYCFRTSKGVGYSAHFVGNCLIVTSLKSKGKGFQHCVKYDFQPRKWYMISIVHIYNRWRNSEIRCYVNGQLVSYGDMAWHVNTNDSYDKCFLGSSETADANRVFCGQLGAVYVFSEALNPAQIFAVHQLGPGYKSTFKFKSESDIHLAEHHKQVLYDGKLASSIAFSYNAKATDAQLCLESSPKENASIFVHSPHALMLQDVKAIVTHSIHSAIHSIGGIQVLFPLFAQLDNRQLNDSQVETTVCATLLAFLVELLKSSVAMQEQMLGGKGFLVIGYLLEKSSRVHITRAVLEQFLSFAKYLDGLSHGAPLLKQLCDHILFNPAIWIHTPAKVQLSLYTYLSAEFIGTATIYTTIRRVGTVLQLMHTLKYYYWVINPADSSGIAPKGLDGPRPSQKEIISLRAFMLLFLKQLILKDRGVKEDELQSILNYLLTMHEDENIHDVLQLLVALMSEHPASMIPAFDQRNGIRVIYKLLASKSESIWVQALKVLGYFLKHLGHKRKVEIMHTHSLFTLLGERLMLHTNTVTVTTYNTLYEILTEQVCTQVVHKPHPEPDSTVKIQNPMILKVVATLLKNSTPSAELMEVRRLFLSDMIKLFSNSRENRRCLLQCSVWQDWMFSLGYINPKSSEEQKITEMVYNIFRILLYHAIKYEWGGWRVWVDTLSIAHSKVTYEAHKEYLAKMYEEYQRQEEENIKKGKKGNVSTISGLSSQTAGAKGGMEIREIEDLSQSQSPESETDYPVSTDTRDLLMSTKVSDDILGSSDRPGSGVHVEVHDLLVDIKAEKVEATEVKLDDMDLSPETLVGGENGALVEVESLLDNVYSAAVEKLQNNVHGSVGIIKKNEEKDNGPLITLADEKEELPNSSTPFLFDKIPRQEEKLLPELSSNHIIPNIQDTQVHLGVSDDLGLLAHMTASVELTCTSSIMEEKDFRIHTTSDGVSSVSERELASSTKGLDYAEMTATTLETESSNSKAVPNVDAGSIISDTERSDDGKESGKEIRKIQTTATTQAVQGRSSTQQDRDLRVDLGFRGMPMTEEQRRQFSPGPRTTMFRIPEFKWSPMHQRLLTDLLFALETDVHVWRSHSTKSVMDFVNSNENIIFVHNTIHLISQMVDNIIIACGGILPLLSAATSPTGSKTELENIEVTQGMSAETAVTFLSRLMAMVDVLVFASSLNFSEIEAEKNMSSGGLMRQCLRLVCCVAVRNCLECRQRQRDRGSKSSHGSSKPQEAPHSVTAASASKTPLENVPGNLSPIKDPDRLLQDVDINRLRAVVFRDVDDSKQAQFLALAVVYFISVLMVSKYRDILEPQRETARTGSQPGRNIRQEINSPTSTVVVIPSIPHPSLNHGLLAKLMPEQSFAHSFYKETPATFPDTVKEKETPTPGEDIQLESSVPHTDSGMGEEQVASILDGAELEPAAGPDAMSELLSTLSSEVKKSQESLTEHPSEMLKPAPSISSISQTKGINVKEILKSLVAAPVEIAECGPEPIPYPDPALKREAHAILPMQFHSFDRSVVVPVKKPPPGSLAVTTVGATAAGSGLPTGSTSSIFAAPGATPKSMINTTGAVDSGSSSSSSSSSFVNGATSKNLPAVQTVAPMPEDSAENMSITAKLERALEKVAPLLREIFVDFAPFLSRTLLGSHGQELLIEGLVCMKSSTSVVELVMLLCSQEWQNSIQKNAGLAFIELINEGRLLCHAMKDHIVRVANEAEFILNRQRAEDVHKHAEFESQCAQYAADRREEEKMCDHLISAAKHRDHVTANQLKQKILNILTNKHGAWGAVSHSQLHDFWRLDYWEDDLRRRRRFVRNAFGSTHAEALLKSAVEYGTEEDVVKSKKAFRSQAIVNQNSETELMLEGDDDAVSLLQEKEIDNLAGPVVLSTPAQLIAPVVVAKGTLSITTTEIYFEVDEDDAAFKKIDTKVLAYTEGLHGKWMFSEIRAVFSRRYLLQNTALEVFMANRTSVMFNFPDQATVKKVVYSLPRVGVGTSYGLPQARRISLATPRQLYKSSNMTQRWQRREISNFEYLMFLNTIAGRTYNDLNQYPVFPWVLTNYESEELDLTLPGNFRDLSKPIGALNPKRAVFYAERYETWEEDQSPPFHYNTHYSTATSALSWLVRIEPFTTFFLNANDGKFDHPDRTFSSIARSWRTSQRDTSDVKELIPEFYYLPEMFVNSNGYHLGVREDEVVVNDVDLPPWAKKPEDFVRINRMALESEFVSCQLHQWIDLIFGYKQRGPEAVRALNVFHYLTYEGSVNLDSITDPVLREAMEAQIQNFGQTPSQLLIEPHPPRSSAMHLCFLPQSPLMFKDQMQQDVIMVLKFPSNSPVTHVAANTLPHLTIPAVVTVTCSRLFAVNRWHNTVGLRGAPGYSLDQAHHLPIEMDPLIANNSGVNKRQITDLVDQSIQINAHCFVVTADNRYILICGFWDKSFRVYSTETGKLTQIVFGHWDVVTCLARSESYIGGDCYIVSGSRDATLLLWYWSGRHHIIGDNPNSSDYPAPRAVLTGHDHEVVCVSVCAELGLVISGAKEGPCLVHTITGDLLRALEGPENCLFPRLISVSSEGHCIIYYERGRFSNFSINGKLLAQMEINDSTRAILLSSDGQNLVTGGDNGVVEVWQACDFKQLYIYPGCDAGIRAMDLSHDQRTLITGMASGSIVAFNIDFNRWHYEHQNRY
# UniProt Q9Z218: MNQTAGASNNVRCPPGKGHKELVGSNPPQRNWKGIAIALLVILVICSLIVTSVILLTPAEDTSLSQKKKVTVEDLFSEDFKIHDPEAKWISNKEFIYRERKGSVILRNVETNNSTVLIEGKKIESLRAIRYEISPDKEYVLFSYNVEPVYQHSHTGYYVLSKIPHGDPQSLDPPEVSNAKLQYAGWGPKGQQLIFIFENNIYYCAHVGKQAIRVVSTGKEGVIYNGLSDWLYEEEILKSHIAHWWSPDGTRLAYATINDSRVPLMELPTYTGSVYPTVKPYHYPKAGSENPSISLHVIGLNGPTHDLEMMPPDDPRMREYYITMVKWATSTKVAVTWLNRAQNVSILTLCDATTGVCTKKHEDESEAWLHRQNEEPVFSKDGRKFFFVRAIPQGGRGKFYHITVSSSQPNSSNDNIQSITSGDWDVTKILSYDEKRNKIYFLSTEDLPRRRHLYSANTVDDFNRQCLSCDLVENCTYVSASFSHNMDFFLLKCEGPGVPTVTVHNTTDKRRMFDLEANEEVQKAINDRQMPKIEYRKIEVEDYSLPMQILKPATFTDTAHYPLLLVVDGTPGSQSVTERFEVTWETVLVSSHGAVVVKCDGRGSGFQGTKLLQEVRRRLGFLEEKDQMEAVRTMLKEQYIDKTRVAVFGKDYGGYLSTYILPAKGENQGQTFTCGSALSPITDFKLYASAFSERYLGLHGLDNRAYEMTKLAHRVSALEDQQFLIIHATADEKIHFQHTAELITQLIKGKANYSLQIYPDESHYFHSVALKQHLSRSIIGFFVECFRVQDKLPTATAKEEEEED
# UniProt Q05BC3: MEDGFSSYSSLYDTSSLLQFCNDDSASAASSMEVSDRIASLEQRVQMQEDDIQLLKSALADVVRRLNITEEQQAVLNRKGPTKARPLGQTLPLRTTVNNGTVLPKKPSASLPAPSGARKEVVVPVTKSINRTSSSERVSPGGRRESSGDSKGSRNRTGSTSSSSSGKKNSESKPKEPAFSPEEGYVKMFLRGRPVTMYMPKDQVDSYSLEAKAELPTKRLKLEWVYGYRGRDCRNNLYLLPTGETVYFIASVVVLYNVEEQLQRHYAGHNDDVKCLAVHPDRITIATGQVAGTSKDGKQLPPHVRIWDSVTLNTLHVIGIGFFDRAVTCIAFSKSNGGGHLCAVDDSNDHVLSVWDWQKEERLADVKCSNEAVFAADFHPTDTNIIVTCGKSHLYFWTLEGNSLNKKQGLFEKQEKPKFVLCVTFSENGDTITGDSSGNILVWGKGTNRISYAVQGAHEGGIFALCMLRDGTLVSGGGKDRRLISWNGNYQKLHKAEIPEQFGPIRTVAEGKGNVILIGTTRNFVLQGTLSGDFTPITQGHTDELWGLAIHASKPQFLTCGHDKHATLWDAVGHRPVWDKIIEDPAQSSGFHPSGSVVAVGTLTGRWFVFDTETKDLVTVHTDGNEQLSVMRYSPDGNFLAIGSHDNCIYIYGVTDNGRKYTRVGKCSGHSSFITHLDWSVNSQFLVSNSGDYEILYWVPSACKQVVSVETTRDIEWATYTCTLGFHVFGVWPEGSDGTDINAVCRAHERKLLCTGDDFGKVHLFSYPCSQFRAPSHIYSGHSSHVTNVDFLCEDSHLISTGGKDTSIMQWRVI
# Results are given in words; binding and its absence hold for the method and conditions named. Binding seen in cells or lysates may run through a third protein. A yes stands for co-enrichment or nearness to the bait. Other partners may have been found.
# B1: Complement component 1Q subcomponent-binding protein, mitochondrial (protein, UniProt O35658 71-278)
# chain: LHTEGDKAFVEFLTDEIKEEKKIQKHKSLPKMSGDWELEVNGTEAKLLRKVAGEKITVTFNINNSIPPTFDGEEEPSQGQKAEEQEPERTSTPNFVVEVTKTDGKKTLVLDCHYPEDEIGHEDEAESDIFSIKEVSFQATGDSEWRDTNYTLNTDSLDWALYDHLMDFLADRGVDNTFADELVELSTALEHQEYITFLEDLKSFVKNQ
# B2: TBC1 domain family member 5 (protein, UniProt Q80XQ2 1-815)
# chain: MYKSVSETRHPLQSEEQEVGIDPLFSYSNKTRGDLSQNGRGSNSTLDTEGTFNSYMKEWEELFVNNNYLATVRQKGINGQLRSSRFRSICWKLFLCVLPQDKSQWISKIKELRAWYSSIKEIHITNPRKAAGQQDLMINNPLSQDEGSLWNKFFQDKELRSMIEQDVKRTFPEMQFFQQENVRKILTDVLFCYARENEQLLYKQGMHELLAPIIFTLHCDHQAFLHASESAQPSEEMKTLLNPEYLEHDAYAMFSQLMETAEPWFSTFEHDGQKGKETLMAPIPFARPQDLGPTVAIVTKVNQIQDHLLKKHDIELYMHLNRLEIAPQIYGLRWVRLLFGREFPLQDLLVVWDALFADSLNLSLVDYVFTAMLLYIRDALISSNYQTCLGLLMHYPIIGDIHSLILKALFLRDPKRNPRPATYQFHPNLDYYKARGADLMNKSRTNARGAPLNIHKVSNSLINFGRKLISPASAPGSMGGPVPGNNSSSSFSAAIPTRTSTEAPRHHLLQQQQQQQHQQQQQQQPQQQQQQHQQQQQQQRLMKSESMPVQLNKGQSSKTISSSPSIESLPGGREFTGSPPPSATKKDSFFSNIARSRSHSKTMGRKESEEELEAQISFLQGQLNDLDAMCKYCAKVMDMHLVNIQDVVLQENLEKEDQILVSLAGLKQIKDILKGSLRFNQSQLEAGENEQITIADDHYCSSGQDQGSQVPRAAKQASSEMPGCTGGTTPDDFILVSKEDEGHRARGAFSGQAQPLLTLRSTSGKSRAPACSPLLFSDPLMGPASASASSSNPSSSPDDDSSKESGFTIVSPLDI
# B3: Discs large homolog 3, Synapse-associated protein 102 (protein, UniProt P70175 1-849)
# chain: MHKHQHCCKCPECYEVTRLAALRRLEPPGYGDWQVPDPYGPSGGNGASSGYGGYSSQTLPSQAGATPTPRTKAKLIPTGRDVGPVPPKPVPGKSTPKLNGSGPGWWPECTCTNRDWYEQASPAPLLVNPEALEPSLSVNGSDGMFKYEEIVLERGNSGLGFSIAGGIDNPHVPDDPGIFITKIIPGGAAAMDGRLGVNDCVLRVNEVDVSEVVHSRAVEALKEAGPVVRLVVRRRQPPPETIMEVNLLKGPKGLGFSIAGGIGNQHIPGDNSIYITKIIEGGAAQKDGRLQIGDRLLAVNNTNLQDVRHEEAVASLKNTSDMVYLKVAKPGSIHLNDMYAPPDYASTFTALADNHISHNSSLGYLGAVESKVTYPAPPQVPPTRYSPIPRHMLAEEDFTREPRKIILHKGSTGLGFNIVGGEDGEGIFVSFILAGGPADLSGELRRGDRILSVNGVNLRNATHEQAAAALKRAGQSVTIVAQYRPEEYSRFESKIHDLREQMMNSSMSSGSGSLRTSEKRSLYVRALFDYDRTRDSCLPSQGLSFSYGDILHVINASDDEWWQARLVTPHGESEQIGVIPSKKRVEKKERARLKTVKFHARTGMIESNRDFPGLSDDYYGAKNLKGVTSNTSDSESSSKGQEDAILSYEPVTRQEIHYARPVIILGPMKDRVNDDLISEFPHKFGSCVPHTTRPRRDNEVDGQDYHFVVSREQMEKDIQDNKFIEAGQFNDNLYGTSIQSVRAVAERGKHCILDVSGNAIKRLQQAQLYPIAIFIKPKSIEALMEMNRRQTYEQANKIFDKAMKLEQEFGEYFTAIVQGDSLEEIYNKIKQIIEDQSGHYIWVPSPEKL
# B4: Serine/threonine-protein kinase Nek 9 (protein, UniProt Q8K1R7 1-984)
# chain: MSVLGEYERHCDSINSDFGSESGGGGDSGPGPSAVPGPRAGGGAAEQEELHYIPIRVLGRGAFGEATLYRRTEDDSLVVWKEVDLTRLSEKERRDALNEIVILALLQHDNIIAYYNHFMDNTTLLIELEYCNGGNLYDKILRQKDKLFEEEMVVWYLFQIVSAVSCIHKAGILHRDIKTLNIFLTKANLIKLGDYGLAKKLNSEYSMAETLVGTPYYMSPELCQGVKYNFKSDIWAVGCVIFELLTLKRTFDATNPLNLCVKIVQGIRAMEVDSSQYSLELIQLVHACLDQDPEQRPAADALLDLPLLRTRRREMEEKVTLLNAPTKRPRSSTVTEAPIAVVTSRTSEVYVWGGGKSTPQKLDVIKSGCSARQVCAGNTHFAVVTVEKELYTWVNMQGGTKLHGQLGHGDKASYRQPKHVEKLQGKAIHQVSCGDDFTVCVTDEGQLYAFGSDYYGCMGVDKVSGPEVLEPMQLNFFLSNPVEQVSCGDNHVVVLTRNKEVYSWGCGEYGRLGLDSEEDYYTPQRVDVPKALIIVAVQCGCDGTFLLTQSGKVLACGLNEFNKLGLNQCMSGIINHEAYHEVPYTTSFTLAKQLSFYKIRTIAPGKTHTAAIDERGRLLTFGCNKCGQLGVGNYKKRLGINLLGGPLGGKQVIRVSCGDEFTIAATDDNHIFAWGNGGNGRLAMTPTERPHGSDICTSWPRPIFGSLHHVPDLSCRGWHTILIVEKVLNSKTIRSNSSGLSIGTVVQSSSPGGGIGGGGGGGGGGGGEEEDSQQESETPDPSGGFRGTMEADRGMEGLISPTEAVGNSCGASSSCPGWLRKELENAEFIPMPDSPAPLSAAFSQSEKDTLPYEELQGLKVASEVPPEPQRAAGAWPPRLDPAVPCVGKALTSAACACSALQVEVDRLQALVLKCLEEQQKLQQENLQMFTQLQKLNKKLEGGQQVGMHSRGTQTAKEEMEMDPKPDLDSESWCLLGTDSCRPSL
# B5: Echinoderm microtubule-associated protein like 2 (protein, UniProt Q7TNG5 1-649)
# chain: MSSFGIGKTKEVIFSMEEGSVKMFLRGRPVPMLIPDELAPTYSLDTRSELPSSRLKLDWVYGYRGRDCRANLYLLPTGEVVYFVASVAVLYSVEEQRQRHYLGHNDDIKCLAVHPDMVTIATGQVAGTTKEGKPLPPHVRVWDSVSLSTLHVLGLGVFDRAVCCVAFSKSNGGNLLCAVDESNDHVLSVWDWAKESKVVDSKCSNEAVLVATFHPTDPSLLITCGKSHIYFWSLEGGSLSKRQGLFEKHEKPKYVLCVTFLEGGDVVTGDSGGNLYVWGKGGNRITQEVQGAHDGGVFALCALRDGTLVSGGGRDRRVVLWGSDYSKVQEVEVPEDFGPVRTVAEGRGDTLYVGTTRNSILLGSVHTGFSLLVQGHVEELWGLATHPSRAQFVTCGQDKLVHLWSSETHQPVWSRSIEDPARSAGFHPSGSVLAVGTVTGRWLLLDTETHDLVAIHTDGNEQISVVSFSPDGAYLAVGSHDNLVYVYTVDQGGRKVSRLGKCSGHSSFITHLDWAQDSTCFVTNSGDYEILYWDPVTCKQITSADTVRNVEWATATCVLGFGVFGIWPEGADGTDINAVARSHDGKLLVSADDFGKVHLFSYPCCQPRALSHKYGGHSSHVTNVAFLWDDSMALTTGGKDTSVLQWRVA
# B6: Echinoderm microtubule-associated protein like 4 (protein, UniProt Q3UMY5 1-988)
# chain: MDGFAGSLDDSISAASTSDVQDRLSALESRVQQQEDEITVLKAALADVLRRLAISEDHVASVKKSMPSKGQPSLREAISMSCITNGSGISRKQNHTSSVSIARKETLSSAAKSGTEKKKEKPQGQREKKEDSHSNDQSPQIRASPSPQPSSQPLQINRQTPESKSSAPIKSIKRPPTAEKSHNSWENSDDSRNKLMKTVSTSKLISKVIKNADKHKDVIVNQAKMSTREKNSQEGEYIKMFMRGRPITMFIPSDVDNYDDIRTELPPEKLKLEWVYGYRGKDCRANVYLLPTGEIVYFIASVVVLFNYEERTQRHYLGHTDCVRCLAVHPDKIRIATGQIAGVDKDGRPLQPHVRVWDSVSLTTLHVIGLGTFERGVGCLDFSKADSGVHLCVIDDSNEHMLTVWDWQKKSKIAEIKTTNEVVLAVEFHPTDANTIITCGKSHIFFWTWSGNSLTRKQGIFGKYEKPKFVQCLAFLGNGDVLTGDSGGVMLIWSKTMVEPPPGKGPKGVYQINRQIKAHDGSVFTLCQMRNGMLLTGGGKDRKIILWDHDLNLEREIEVPDQYGTIRAVAEGRAEQFLVGTSRNFILRGTFNDGFQIEVQGHRDELWGLATHPFKDLLLTCAQDRQVCMWNSVEHRLEWTRLVDEPGHCADFHPSGTVVAIGTHSGRWFVLDAETRDLVSIHTDGNEQLSVMRYSVDGTLLAVGSHDNFIYLYTVLENGRKYSRYGKCTGHSSYITHLDWSPDNKHIMSNSGDYEILYWDIENGCKLIRNRSDCKDIDWTTYTCVLGFQVFGVWPEGSDGTDINALVRSHNRRVIAVADDFCKVHLFQYPCSKAKAPSHKYSAHSSHVTNVSFTHNDSHLISTGGKDMSIIQWKLVEKLPVPQNEVITDASVTKTPASSSETARPSNSPPLPPSLPLTGTAEEESRMGSSPTLVENSLEQIAEPSEEQSEWGSEDLGVVIDEEPASELSETQGATELPEEERGITPLC
# Biological target: Neurobeachin (mouse (endogenous in mouse brain)) (UniProt Q9EPN1)
# Experiment: affinity purification with mass spectrometry; IP with α-Nbea antibody from the P2+microsomes fraction of P84 mouse brain solubilised with 1% n-Dodecyl β-D-maltoside (DDM), protein A/G agarose, 4°C; controls: empty beads, E18 KO IP; LTQ-Orbitrap
row,binding,Molecule
1,binds,Dipeptidyl aminopeptidase-like protein 6 (from UniProt Q9Z218 1-804)
2,binds,B1
3,binds,B2
4,binds,B3
5,binds,B4
6,binds,B5

# Biological target: Neurobeachin (mouse (endogenous in mouse brain)) (UniProt Q9EPN1)
# Experiment: affinity purification with mass spectrometry; IP with α-Nbea antibody from E18 mouse brain homogenates solubilised with 1% Triton X-100, protein A/G agarose, 4°C; controls: Nbea KO brain, pre-immune serum, empty beads; SDS-PAGE, trypsin, LTQ-Orbitrap
row,binding,Molecule
1,binds,Dipeptidyl aminopeptidase-like protein 6 (from UniProt Q9Z218 1-804)
2,binds,Echinoderm microtubule-associated protein like 1 (from UniProt Q05BC3 1-814)
3,binds,Lipopolysaccharide-responsive and beige-like anchor protein (from UniProt Q9ESE1 1-2856)
4,binds,B6
5,binds,B3
6,binds,B4
7,binds,B5
